Reference: PubChem BioAssay AID1625 (Sanford-Burnham Center for Chemical Genomics, 2009)
The campaign covered roughly 190,000 compounds. About 570 (0.3%) were called active. The shares of active, inactive and inconclusive entries below differ from those in the screen.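 How the source made its calls: active means z-score above 3 at 5 µM with at least 500 cells counted in the well; inconclusive means wells under 500 cells, flagged as cytotoxic or low count; inactive means the rest.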

Experiment: up-regulation of insulin promoter-GFP reporter – imaging, high-content screening, mouse beta cells (AID 1625)
Details: MIN6 insulin promoter-GFP reporter, at 5 µM, stronger effect = higher value

| Structure (SMILES) | z-score |
| --- | --- |
| Cc1cccc(N2CCN(C(=O)CSCc3c(C)noc3C)CC2)c1C | inconclusive: -1.56 |
| Cc1ccc(Nc2nc(-c3c(C)nc4ccccn34)cs2)cc1 | inconclusive: -3.41 |
| CC(=O)c1c(COC(=O)c2ccncc2)nc2ccccc2[n+]1[O-] | active: 4.18 |
| CCc1ccc(-c2nc(CN3CCC(C(=O)N4CCN(c5ccccc5)CC4)CC3)c(C)o2)cc1 | inconclusive: -1.11 |
| CC(COc1ccccc1)N1CCC(CO)(Cc2ccccc2)CC1 (stereo not given) | inactive: -0.38 |
| Cn1nc(-c2ccc(OCC(=O)NCC3CCCO3)cc2)c2ccccc2c1=O (stereo not given) | inconclusive: -6.81 |
| CCC1(C(=O)O)NC(c2cc(OC)ccc2O)C2C(=O)N(Cc3ccccc3)C(=O)C21 (stereo not given) | inactive: -0.44 |
| OCc1ccc(O)c2ncccc12 | inconclusive: -6.86 |
| O=C(Cc1cccs1)Nc1nc(-c2cccnc2)cs1 | inactive: -0.05 |
| O=C1CC(N(CCc2ccccc2)C(=S)Nc2ccccc2)C(=O)N1c1ccc(Br)cc1 (stereo not given) | inactive: -1 |
| Cc1ccc(C)c(S(=O)(=O)NC(C)C(=O)Nc2ccc(-c3nc4ccccc4s3)cc2)c1 (stereo not given) | inactive: -0.28 |
| O=C(NN=C1CCN(Cc2ccccc2)CC1)c1cccc(S(=O)(=O)Nc2ccccc2Cl)c1 | active: 3.03 |
| COc1ccc(C2NCCc3c2[nH]c2ccccc32)cc1CN1CCc2cc(OC)c(OC)cc2C1C (stereo not given) | inconclusive: -4.29 |
| O=[N+]([O-])c1ccc(N2CCCC2)cc1NC(c1ccccc1)c1ccccc1 | inconclusive: 1.92 |
| O=[N+]([O-])c1ccc(O)c(/C=N/Nc2ccc(Cl)nn2)c1 | inconclusive: -2.72 |
| C=CCC(c1ccccc1)N(C(C)=O)c1ccco1 (stereo not given) | active: 3.62 |
| O=C1C2C3C=CC(C3)C2C(=O)N1CCc1ccccc1 (stereo not given) | active: 3.33 |
| Cc1ccc(-n2ncc(C(=O)Nc3cc(Cl)cc(Cl)c3)c2C2CCNCC2)cc1C | inconclusive: -4.72 |
| COCCn1c(C)cc(C(=O)COc2nc3ccccc3nc2C)c1C | inconclusive: -0.87 |
| CC[C@]1(O)C[C@@H]2CN(CCc3c([nH]c4ccccc34)[C@@](C(=O)OC)(c3cc4c(cc3OC)N(C)[C@H]3[C@@](O)(C(=O)OC)[C@H](OC(C)=O)[C@]5(CC)C=CCN6CC[C@]43[C@@H]65)C2)C1 | inconclusive: -1.95 |
| COCCNC(=S)N/N=C(\C)c1ccc2cc(OC)ccc2c1 | active: 3.43 |
| Oc1ccc(Nc2nc(NCC3CCCO3)c3ccccc3n2)cc1 (stereo not given) | inconclusive: -0.83 |
| CCCOc1ccc(/C=N/NC(=S)Nc2ccccc2[N+](=O)[O-])c(O)c1 | inconclusive: -1.06 |

| Structure (SMILES) | z-score |
| --- | --- |
| CC1=C/C(=N\OS(=O)(=O)c2ccccc2)C(C(C)C)=CC1=O | inconclusive: -1.48 |
| Oc1ccc(/C=N/Nc2nc(-c3ccccc3F)nc3ccccc23)c(O)c1 | active: 3.69 |
| CC1CCCN(c2nc3c(c(=O)n(C)c(=O)n3C)n2CCSc2nc3ccccc3s2)C1 (stereo not given) | active: 3.19 |
| NC(=O)CC(NC(=O)c1ccc(Br)cc1)c1ccc(N2CCC(Br)CC2)c([N+](=O)[O-])c1 (stereo not given) | inconclusive: -5.17 |
| Cc1ccccc1OCC(=O)OC1CCN(C)CC1 | active: 8.59 |
| Cc1cccc2nc(CSc3nc4[nH]ncc4c(=O)n3-c3cccc(Cl)c3)cc(=O)n12 | inconclusive: -2.27 |
| CCc1ccc(-c2nc(CN3CCC(C(=O)NCc4ccccc4OC)CC3)c(C)o2)cc1 | inconclusive: -0.61 |
| CC1Cc2ccccc2N1C1=CC(=O)CCC1 (stereo not given) | inconclusive: -3.2 |
| N=c1c2c(n(Cc3cccc(Cl)c3)c3c1CCC3)CCCC2 | inconclusive: -2.07 |
| COC(=O)c1c(NC(=O)c2nc3ccccc3s2)sc2c1CC(C)(C)NC2(C)C | inconclusive: -1.73 |
| CC(C)(C)NC(=O)CN(C(=O)Cn1nnc(-c2ccc(Cl)cc2)n1)C1CCN(Cc2ccccc2)CC1 | inconclusive: -2.5 |
| CC[n+]1c(/C=C/c2c[nH]c3ccccc23)ccc2cc(C)ccc21 | inconclusive: 16.2 |
| Cc1ccc(-n2c(C)nc3oc4ccccc4c(=O)c3c2=O)cc1 | active: 3.88 |
| CC1CCC(C(C)C)C(OC(=O)Cn2c(-c3ccc(Cl)cc3)[n+](C)c3ccccc32)C1 (stereo not given) | inconclusive: -5.07 |
| COC(=O)c1ccc(C(=O)OC)c(NC(=O)COC(=O)C2CC2C)c1 (stereo not given) | inactive: 0.28 |
| CCOc1ccc(OCC)c(-c2c(=O)n(OCc3ccc(Cl)cc3)c3ccccc3[n+]2[O-])c1 | active: 3.34 |
| O=C1ON=C(c2cccc([N+](=O)[O-])c2)/C1=C/c1ccc(O)cc1 | inactive: 0.44 |
| Cc1cc(C)c2c3c(sc2n1)C(c1cccc(F)c1)C(C#N)=C(N)O3 (stereo not given) | inactive: -0.41 |
| Cc1nn(Cc2ccc(Cl)c(Cl)c2)c(C)c1NC(=O)c1cc(-c2ccco2)on1 | inconclusive: -2.6 |
| CCCCCOC(=O)c1[nH]c2c(c1C)C(=O)CC(c1ccco1)C2 (stereo not given) | inconclusive: -4 |
| O=C(CSc1ncn[nH]1)NCc1ccccc1 | active: 5.42 |
| CC1(C)CC(N=c2cc(-c3ccccc3)oc3ccc(Cl)cc23)CC(C)(C)N1 | inconclusive: -4.45 |

Part of the list above in a different format.
Structure (SMILES) | z-score
CC1=C/C(=N\OS(=O)(=O)c2ccccc2)C(C(C)C)=CC1=O | inconclusive: -1.48
O=C(CSc1ncn[nH]1)NCc1ccccc1 | active: 5.42
